Results are given in words; binding and its absence hold for the method and conditions named. Some results given as binding are weak or reduced against the parent protein; the word gives no strength.
T1: α-parvin-CHC (C-terminal calponin homology domain fragment of human α-parvin, residues 242-372) (human) (UniProt Q9NVD7)
T1 sequence: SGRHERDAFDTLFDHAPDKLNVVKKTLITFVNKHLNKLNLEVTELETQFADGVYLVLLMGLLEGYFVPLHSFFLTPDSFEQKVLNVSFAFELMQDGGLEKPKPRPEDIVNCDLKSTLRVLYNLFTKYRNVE

B1: paxillin LD1 peptide (human paxillin residues 1-20) (peptide)
peptide: MDDLDALLADLESTTSHISK
notes: paxillin, human, LD1 motif, residues 1-20; source: synthetic peptide, bought: Severn Biotech

Key:
[1] = target: T1, α-parvin-CHC (C-terminal calponin homology domain fragment of human α-parvin, residues 242-372) (human); assay: NMR titration; 1H-15N HSQC of 235 μM 15N-enriched α-parvin-CHC titrated with LD peptide; 50 mM sodium phosphate, 100 mM NaCl, 2 mM DTT, 5% D2O, pH 6.9, 25°C; global fit to a single-site model; both purified
[2] = target: T1, α-parvin-CHC (C-terminal calponin homology domain fragment of human α-parvin, residues 242-372) (human); assay: crystal structure; cocrystals of α-parvin-CHC with a 2-fold molar excess of LD peptide, sitting drops, 13°C; molecular replacement with the apo structure; both purified

Row | Binder | binding [1] | binding [2]
1 | PGSQLDSMLGSLQSDLNKLG [paxillin LD5 peptide (human paxillin residues 296-315)] | binds weakly | –
2 | B1 | – | binds
